The series is described as follows: general procedure: solution-phase peptide synthesis; BOP-Cl / N,N-diisopropylethylamine. As to conditions: of theory.

For the substance Bn-(L-MeIle-D-Lac)2-L-MePhe-D-Lac-OtBu, the step yield (coupling step) is recorded as 44.6% of theory.

Turning to Bn-(L-MeIle-D-Lac)2-OH, the step yield (late stage modification step) is given as 100% of theory.

Bn-(L-MeLeu-D-Lac)2-OtBu: under “coupling step”, the step yield was 96.0% of theory.

For H-(L-MeIle-D-Lac)3-OH, where the note is “late stage modification step”, the step yield is recorded as 100% of theory.

On to H-(L-MeLeu-D-Lac)2-OtBu, for which, for the setting “late stage modification step”, the step yield is given as 100% of theory.

As to “H-(L-MeLeu-D-PheLac)2-L-MeLeu-D-Lac-OtBu”, under “late stage modification step”, the step yield is 97% of theory.

Consider Z-(L-MeIle-D-Lac)3-OH, for which the step yield (late stage modification step) is given as 82.9% of theory.

As for Z-(L-MeIle-D-Lac)3-OtBu, the step yield (coupling step) is 77.4% of theory.

(Values after patent US5529984A (Bayer Aktiengesellschaft, priority 1993, dated 1996).)
